{"source": "patent US8859615B2", "about": "“Compounds, compositions and methods for reducing toxicity and treating or preventing diseases” (priority 2008, dated 2014)", "tested_on": "normal human PBMC lymphocytes", "experiment": "Human PBMC lymphocyte viability by actual cell counts (hemacytometer; Tables 8A, 8B, FIG. 9)", "format": "cell-based", "details": "FIGS. 9A", "excerpt": "FIGS. 9A & 9B show effects of panaxytriol and Compound D, respectively, in varying doses at 24 (▪), 72 (●), and 120 (▴) hours on human PBMC lymphocyte survival based on actual cell counts. In both cases, lower amounts of the compounds increase cell proliferation. […] Cell counts in controls without active agent were: at 24 hrs: 75.4%; at 72 hrs: 93.0%; and at 120 hrs: 85.7%. FIG. 9 parallel the experiments in FIG. 8 but used a different method to determine cell survival; the method used in FIG. 9 was actual cell counting using a hemocytometer and microscope.\nThe effects of panaxytriol and Compound D on the viability of normal human PBMC lymphocytes shown in Tables 8A and 8B were determined using hemacytometer/microscope determinations. PBMC cells were obtained fresh from the New York Blood Center, New York, N.Y. 10021 (Dr. S. B. Jiang). Cell counts were performed in duplicate for 0, 0.1, 0.3, 1.0, 3.0, and 10.0 μM of each compound at the end of 24 hr, 72 hr, and 120 hr incubations. Incubation was carried out in RPMI 1640 medium (GIBCO/BRL) with 10% heat inactivated fetal bovine serum. […] Acad. Sci. USA 98: 8113-8118, 2001.", "note": "Some of these results come from one statement about several compounds together.", "data": [{"compound": "C=C[C@@H](O)C#CC#CC[C@@H](O)[C@H](O)CCCCCCC", "note": "[panaxytriol]", "values": [{"measurement": "high concentrations increasing cell death", "value": "3 to 10", "unit": "µM"}, {"measurement": "low concentrations reducing or delaying spontaneous cell death", "value": "0.1 to 0.3", "unit": "µM"}]}]}
